Test results published in US12398180B2, “Treatment of non-alcoholic fatty liver disease” (NURITAS LIMITED, priority 2019, dated 2025).
Part of at least one peptide drawing is inferred or uncertain, most often the ends. For some of these results: At least one compound was matched to its structure with a doubt left. Square brackets hold non-standard residues; d marks the D form. Peptide text beside a SMILES is read from it.

Experiments:
[1] = test system: human skeletal muscle cells; assay: Glucose uptake in skeletal muscle cells; assay type: cell-based; conditions: compared with insulin (FIG. 3)
[2] = Glycosylated haemoglobin (HbA1c %); assay type: in vivo; conditions: compared with Liraglutide (FIG. 4)
obese diabetic KKAy mice = assay: Hepatic steatosis (NAFLD scoring of liver histology) in KKAy obese diabetic mouse model; assay type: in vivo
Human primary cells = assay: In vitro primary human cell-based systems biomarker profile
[3] = test system: human primary endothelial cells; assay: Proliferation in primary human cell-based systems
[4] = test system: SREBF1, FASN and Caspase-3 genes; assay: Gene expression profiling in the liver of KKAy mice; assay type: in vivo, mouse; conditions: 44 days treatment
IL-8 = IL-8 ELISA in LPS-stimulated HepG2 hepatocytes; assay type: cell-based, human; conditions: 24 h pre-treatment (5 ng/ml), then 100 ng/ml LPS for 24 h
[5] = test system: primary human hepatic stellate cells; assay: Anti-fibrotic effect in TGF-β stimulated primary hepatic stellate cells (ACTA2 staining); assay type: cell-based; conditions: 5 nM
Experimental: The procedure was performed as described above for the CY5 labelled peptide imaging in HSkMCs with a few minor modifications. Primary hepatic stellate cells were investigated as they are considered to be the most relevant profibrogenic cells operating in acute and chronic liver diseases. The stellate cells were seeded directly onto the glass coverslips at a density of 5,000 cells/mL. After starvation, the cells were treated with pep_1E99R5 (5 ng/mL) or Elafibranor (10 μM) for 6 hours. The cells were washed and subsequently treated with 5 ng/ml […] (Bio Techne, Minneapolis, MN, United States) for 24 hours to induce fibrosis. The cells were fixed and stained with ACTA2 antibody (Assay Genie, Dublin, Ireland), a marker of fibroblast activation.
The confocal images were analysed with custom Python scripts using the scikit-image library version 0.15. The cells and nuclei were segmented using a simple threshold computed using the mean value of the image. Using the Nuclei as a seed we separated the cells in the cell mask using watershed segmentation. Cell size was then quantified in pixels. [Stéfan van der Walt, Johannes L. Schönberger, Juan Nunez-Iglesias, Frangois Boulogne, Joshua D. Warner, Neil Yager, Emmanuelle Gouillart, Tony Yu and the scikit-image contributors. scikit-image: Image processing in Python. PeerJ 2:e453 (2014)

C57BL/6 mice = assay: Acetaminophen (APAP)-induced acute liver injury mouse model, ALT/AST; assay type: in vivo

SMILES: CC(C)C[C@H](NC(=O)[C@@H]1CCCN1C(=O)[C@H](CCCCN)NC(=O)CNC(=O)[C@@H](C)NC(=O)[C@H](CCC(=O)O)NC(=O)[C@H](CC(=O)O)NC(=O)[C@@H](CCCCN)NC(=O)[C@H](N)Cc1c[nH]c2ccccc12)C(=O)N[C@@H](C(=O)N[C@H](CCCCN)C(=O)O)C(C)C [SEQ ID 2, {d}W{d}KDE{d}AGKPL{d}V{d}K] (H-[dW][dK]DE[dA]GKPL[dV][dK]-OH; N-terminus and C-terminus assumed)
- glucose uptake into skeletal muscle cells [1]: significantly enhances
- HbA1c % [2]: significantly reduces

SMILES: CCCCCCCCCCCCCCCC(=O)N[C@@H](CCC(=O)NCCCC[C@H](NC(=O)[C@H](C)NC(=O)[C@H](C)NC(=O)[C@H](CCC(N)=O)NC(=O)CNC(=O)[C@H](CCC(=O)O)NC(=O)[C@H](CC(C)C)NC(=O)[C@H](Cc1ccc(O)cc1)NC(=O)[C@H](CO)NC(=O)[C@H](CO)NC(=O)[C@@H](NC(=O)[C@H](CC(=O)O)NC(=O)[C@H](CO)NC(=O)[C@@H](NC(=O)[C@H](Cc1ccccc1)NC(=O)[C@@H](NC(=O)CNC(=O)[C@H](CCC(=O)O)NC(=O)[C@H](C)NC(=O)[C@@H](N)Cc1cnc[nH]1)[C@@H](C)O)[C@@H](C)O)C(C)C)C(=O)N[C@@H](CCC(=O)O)C(=O)N[C@@H](Cc1ccccc1)C(=O)N[C@H](C(=O)N[C@@H](C)C(=O)N[C@@H](Cc1c[nH]c2ccccc12)C(=O)N[C@@H](CC(C)C)C(=O)N[C@H](C(=O)N[C@@H](CCCNC(=N)N)C(=O)NCC(=O)N[C@@H](CCCNC(=N)N)C(=O)NCC(=O)O)C(C)C)[C@@H](C)CC)C(=O)O [Liraglutide, reference compound]
- signs of NAFLD (FIG. 2B) (obese diabetic KKAy mice; liraglutide 250 μg/ml daily sc, 44 days): exhibited signs of NAFLD

SMILES: CC(C)C[C@H](NC(=O)[C@@H]1CCCN1C(=O)[C@H](CCCCN)NC(=O)CNC(=O)[C@H](C)NC(=O)[C@H](CCC(=O)O)NC(=O)[C@H](CC(=O)O)NC(=O)[C@H](CCCCN)NC(=O)[C@@H](N)Cc1c[nH]c2ccccc12)C(=O)N[C@H](C(=O)N[C@@H](CCCCN)C(=O)O)C(C)C [pep_260] (H-WKDEAGKPLVK-OH; N-terminus and C-terminus assumed)
- TF activity (Human primary cells; Hemostasis biomarker): ↓
- sIL-2 activity (Human primary cells; Immunomodulatory biomarker): ↓
- IL-1a activity (Human primary cells; Inflammation biomarker): ↓
- IL-8 activity (Human primary cells; Inflammation biomarker): ↓
- VCAM-1 activity (Human primary cells; Inflammation biomarker): ↓
- Anti proliferative: VEGFR2 activity (Human primary cells; Other activities): ↓
- TIMP1 activity (Human primary cells; Tissue remodelling biomarker): ↓
- proliferation of human primary endothelial cells [3]: antiproliferative
- signs of NAFLD (FIG. 2B) (obese diabetic KKAy mice; 10 μM): trended to a decrease
- signs of NAFLD (FIG. 2B) (obese diabetic KKAy mice; 50 μM): reduced significantly
- macrovesicular steatosis, expert grading (obese diabetic KKAy mice; subcutaneous daily for 44 days, KKAy mice): significantly relieves
- Caspase-3 gene expression in liver tissue [4]: reduction
- FASN gene expression in liver tissue [4]: reduction
- SREBF1 gene expression in liver tissue [4]: reduction
- IL-8 secretion (IL-8): significantly reduced
- expression of ACTA2 in stellate cells (images) ([5]; pre-incubation before TGF-β stimulation): dramatically reduced
- fibrosis marker expression quantified in pixels by image analysis ([5]; p<0.01, comparable with 10 μM Elafibranor): reduction was shown to be significant
- reduction in ALT versus APAP/saline control (C57BL/6 mice; 2.25 hours, 10 mg/kg IV 1.5 h after APAP 200 mpk IP): 80%
- levels of AST and ALT (C57BL/6 mice; 6 hours, 10 mg/kg IV): increased
